PubChem BioAssay AID743121, NCATS | 2013

Test: 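Knock-downs that sensitise breast cancer cells to camptothecin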 (primary screen)
Cell system: MDA-MB-231 cells, a human breast cancer line
Reagents: single siRNA against human genes, 20 nM siRNA (0.8 pmol per well)
Timing: 120 h (drug added 48 h after transfection, read 72 h later)
Treatment: camptothecin 20 nM (about EC30) for 72 h; vehicle 0.1% DMSO in parallel plates
Detection: 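Cell viability by ATP luminescence (CellTiter-Glo) as % of non-targeting siRNA wells, and the log2 ratio of viability without drug over viability with camptothecin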
Direction: log2 vehicle/camptothecin viability: higher = stronger sensitisation to camptothecin; viability with camptothecin: higher = more viable cells
Active means: 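Each gene scored by redundant siRNA activity (RSA) over its individual siRNA ratios; a gene is called active at p < 0.001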
In all, the deposit lists about 26,000 reagents; shown is a part drawn at random. 167 of them (0.63%) count as active. 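Calls are per gene from RSA p-values that are not deposited; an individual active-marked siRNA can sensitise only weakly.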 Not all columns of the deposit are shown.

With PLXND1 [SID164445800], what was measured?
log2 vehicle/camptothecin viability: -0.156; viability with camptothecin (% of control): 108; activity call: inactive

How did the screen score PLXND1 [SID164445801]?
log2 vehicle/camptothecin viability: -0.483; viability with camptothecin (% of control): 62.8; activity call: inactive

What is on record for PLXND1 [SID164445803]?
log2 vehicle/camptothecin viability: -0.389; viability with camptothecin (% of control): 84.5; activity call: inactive

For PLXND1 [SID164445804], how do the results read?
log2 vehicle/camptothecin viability: -0.0364; viability with camptothecin (% of control): 50; activity call: inactive

What is on record for CYB5R3 [SID164361523]?
log2 vehicle/camptothecin viability: -0.337; viability with camptothecin (% of control): 70.2; activity call: inactive

What did the screen give for CYB5R3 [SID164361524]?
log2 vehicle/camptothecin viability: 0.473; viability with camptothecin (% of control): 53.6; activity call: inactive

What is on record for CYB5R3 [SID164361526]?
log2 vehicle/camptothecin viability: -0.255; viability with camptothecin (% of control): 109; activity call: inactive

What did the screen give for CYB5R3 [SID164361528]?
log2 vehicle/camptothecin viability: 1.29; viability with camptothecin (% of control): 20.6; activity call: inactive

Looked up above:
Result of CYB5R3 [SID164361523] under “viability with camptothecin (% of control)”: 70.2
Entry of CYB5R3 [SID164361526] under “viability with camptothecin (% of control)”: 109

Continued:
With ALOX5AP [SID164353087], what does the deposit list?
log2 vehicle/camptothecin viability: -0.634; viability with camptothecin (% of control): 91.2; activity call: inactive

For ALOX5AP [SID164353088], what does the deposit list?
log2 vehicle/camptothecin viability: -0.0763; viability with camptothecin (% of control): 114; activity call: inactive

Which result is listed for ALOX5AP [SID164353090]?
log2 vehicle/camptothecin viability: 0.0906; viability with camptothecin (% of control): 95.6; activity call: inactive

For ALOX5AP [SID164353092], what was measured?
log2 vehicle/camptothecin viability: -0.291; viability with camptothecin (% of control): 64.1; activity call: inactive

What is on record for SGCG [SID164387819]?
log2 vehicle/camptothecin viability: -0.211; viability with camptothecin (% of control): 83.1; activity call: inactive

For SGCG [SID164387820], how do the results read?
log2 vehicle/camptothecin viability: -0.125; viability with camptothecin (% of control): 86.3; activity call: inactive

With SGCG [SID164387824], how do the results read?
log2 vehicle/camptothecin viability: -0.108; viability with camptothecin (% of control): 111; activity call: inactive
